PubChem BioAssay AID1671195 – Yale University – 2021
This is an unselected part of about 22,000 deposited reagents. In the full data, about 1,510 (6.9%) are marked active. 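Active includes knockdowns raising or lowering LDL uptake; positive z-scores mean more uptake, negative mean less.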 The numbers tell different reagents against one gene apart. Reagent sequences are not shown.

Assay: 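Knockdowns that increase or decrease uptake of fluorescent LDL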 (primary screen)
Cells: human Huh7 hepatoma cells
Reagent: siRNA pool against human genes, 18 nM
Time to read-out: about 2 to 2.5 days of knockdown, then 8 h LDL uptake
Treatment: DiI-labelled LDL at 30 µg/ml for 8 h, in lipoprotein-deficient serum medium
Measurement: 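Per-cell DiI-LDL intensity by automated imaging; well means scaled to the plate median and given as a robust z-score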
Scale: robust z-score: higher = more LDL uptake after knockdown
Call rule: 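Active when two or more replicates show a robust z-score above 2 or below -2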

For SAAL1, the values are robust z-score, replicate 1 = -1.69; robust z-score, replicate 2 = -0.419; robust z-score, replicate 3 = -1.27; inactive.
With knock-down of SLC4A8 #1, the record shows robust z-score, replicate 1 = -2.26; robust z-score, replicate 2 = -1.97; robust z-score, replicate 3 = -2.2; active.
For SLC4A8 #2, the values are robust z-score, replicate 1 = -0.292; robust z-score, replicate 2 = -0.405; robust z-score, replicate 3 = 0.191; inactive.
SLC19A1 gave robust z-score, replicate 1 = -0.787; robust z-score, replicate 2 = -0.997; robust z-score, replicate 3 = -0.842; inactive.
For LOC440098 (retired record), the entry reads robust z-score, replicate 1 = 1.15; robust z-score, replicate 2 = 0.828; robust z-score, replicate 3 = 0.863; inactive.
After knock-down of RNF167, the screen gave robust z-score, replicate 1 = -0.515; robust z-score, replicate 2 = 0.378; robust z-score, replicate 3 = -0.732; inactive.
After knock-down of CCL1 the results were robust z-score, replicate 1 = -0.117; robust z-score, replicate 2 = 0.0345; robust z-score, replicate 3 = 0.172; inactive.
RPL35A gave robust z-score, replicate 1 = -0.975; robust z-score, replicate 2 = -1.38; robust z-score, replicate 3 = -1.42; inactive.
JAKMIP1 showed robust z-score, replicate 1 = -1.02; robust z-score, replicate 2 = -0.691; robust z-score, replicate 3 = -1.25; inactive.
Silencing of SP140 gave: robust z-score, replicate 1 = 2.03; robust z-score, replicate 2 = 1.35; robust z-score, replicate 3 = 1.21; inactive.
SLC25A44 showed robust z-score, replicate 1 = 0.365; robust z-score, replicate 2 = 0.991; robust z-score, replicate 3 = 2.43; inactive.
Silencing of TCF19 resulted in: robust z-score, replicate 1 = 1.12; robust z-score, replicate 2 = 0.972; robust z-score, replicate 3 = 0.695; inactive.

Reagents listed above called active, once more:
SLC4A8 #1 — robust z-score, replicate 1: -2.26; robust z-score, replicate 2: -1.97; robust z-score, replicate 3: -2.2; Outcome: active
